Measured values reported in the RepoRT retention time repository.

Experiment: HILIC, Waters ACQUITY UPLC BEH Amide, 100 × 2.1 mm, 1.7 µm; A: water + 0.125% formic acid + 10 mM ammonium formate; B: 5% water + 95% acetonitrile + 0.125% formic acid + 10 mM ammonium formate; gradient (min/%B) 0/100 2/100 7.7/70 9.5/40 10.25/30 12.75/100 17/100
Conditions: stereoisomer not certain

Row | LC retention time [min] | SMILES
1 | 2.92 | Cc1cccc(CCN2CCC(C(=O)c3ccc(NS(C)(=O)=O)cc3)CC2)n1 [E-4031]
2 | 0.97 | Cc1c(C(=O)NN2CCCCC2)nn(-c2ccc(Cl)cc2Cl)c1-c1ccc(I)cc1 [AM-251]
